# Assay results: the supplement of paper PMC8728848
# Some of the results follow.
# B1: AT1G77380(17) (Arabidopsis thaliana), Q39134 (protein)
# chain: MVQNHQTVLAVDMPQTGGSKYLDDDGKNKRTGSVWTASAHIITAVIGSGVLSLAWATAQLGWLAGPVVMLLFSAVTYFTSSLLAACYRSGDPISGKRNYTYMDAVRSNLGGVKVTLCGIVQYLNIFGVAIGYTIASAISMMAIKRSNCFHKSGGKDPCHMNSNPYMIAFGLVQILFSQIPDFDQLWWLSILAAVMSFTYSSAGLALGIAQVVVNGKVKGSLTGISIGAVTETQKIWRTFQALGDIAFAYSYSIILIEIQDTVKSPPSEEKTMKKATLVSVSVTTMFYMLCGCMGYAAFGDLSPGNLLTGFGFYNPYWLLDIANAAIVIHLIGAYQVYCQPLFAFIEKQASIQFPDSEFIAKDIKIPIPGFKPLRLNVFRLIWRTVFVIITTVISMLLPFFNDVVGLLGALGFWPLTVYFPVEMYIAQKKIPRWSTRWVCLQVFSLGCLVVSIAAAAGSIAGVLLDLKSYKPFRSEY
# Key:
# Test in all cases: glycan array binding signal (z-score within array); higher = stronger binding
# Conditions in all cases: glycan notation: IUPAC condensed, linker removed
# GalNAc(b1-4)GlcNAc = target: GalNAc(b1-4)GlcNAc
# Method in brief: (§1)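 Glycan array data were curated from 3228 arrays in the Consortium for Functional Glycomics database and kept only where the protein sequence was available. Glycan names were converted to IUPAC-condensed notation, and columns mapping to the same glycan were averaged. The binding signal is a within-array Z-score, averaged across arrays of the same protein sequence at different concentrations or buffers and across linkers. Negative Z-scores can be read as non-binding.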
# [1] = target: GalNAc(b1-4)GlcNAc(b1-2)Man
# Method in brief: as §1
# [2] = target: GalNAc(b1-4)GlcNAc(b1-2)Man(a1-3)[GalNAc(b1-4)GlcNAc(b1-2)Man(a1-6)]Man(b1-4)GlcNAc(b1-4)GlcNAc
# Method in brief: as §1
# [3] = target: GalNAc(b1-4)GlcNAc(b1-3)GalNAc(b1-4)GlcNAc
# Method in brief: as §1
# GalNAc(b1-4)GlcNAc6S = target: GalNAc(b1-4)GlcNAc6S
# Method in brief: as §1
# GalNAc(b1-6)GalNAc = target: GalNAc(b1-6)GalNAc
# Method in brief: as §1
# GalNAc3S(b1-4)GlcNAc = target: GalNAc3S(b1-4)GlcNAc
# Method in brief: as §1
# GalNAc3S(b1-4)GlcNAc3S = target: GalNAc3S(b1-4)GlcNAc3S
# Method in brief: as §1
# [4] = target: GalNAc3S(b1-4)[Fuc(a1-3)]GlcNAc
# Method in brief: as §1
# GalNAc4S6S(b1-4)GlcNAc = target: GalNAc4S6S(b1-4)GlcNAc
# Method in brief: as §1
# GalNAc6S(b1-4)GlcNAc = target: GalNAc6S(b1-4)GlcNAc
# Method in brief: as §1
# Glc(a1-4)Glc = target: Glc(a1-4)Glc
# Method in brief: as §1
# [5] = target: Glc(a1-4)Glc(a1-4)Glc(a1-4)Glc
# Method in brief: as §1
# Glc(a1-6)Glc(a1-6)Glc = target: Glc(a1-6)Glc(a1-6)Glc
# Method in brief: as §1
# [6] = target: Glc(a1-6)Glc(a1-6)Glc(a1-6)Glc
# Method in brief: as §1
# Glc(b1-4)Glc = target: Glc(b1-4)Glc
# Method in brief: as §1
# Glc(b1-6)Glc = target: Glc(b1-6)Glc
# Method in brief: as §1
# GlcA(b1-3)Gal = target: GlcA(b1-3)Gal
# Method in brief: as §1
# GlcA(b1-3)GlcNAc = target: GlcA(b1-3)GlcNAc
# Method in brief: as §1
# GlcA(b1-6)Gal = target: GlcA(b1-6)Gal
# Method in brief: as §1
# [7] = target: GlcA3S(b1-3)Gal(b1-4)GlcNAc(b1-2)Man
# Method in brief: as §1
# [8] = target: GlcA3S(b1-3)Gal(b1-4)GlcNAc(b1-3)Gal(b1-4)Glc
# Method in brief: as §1
# [9] = target: GlcNAc(a1-3)Gal(b1-4)GlcNAc
# Method in brief: as §1
# [10] = target: GlcNAc(a1-4)Gal(b1-3)GlcNAc
# Method in brief: as §1
# [11] = target: GlcNAc(a1-4)Gal(b1-4)GalNAc
# Method in brief: as §1
# [12] = target: GlcNAc(a1-4)Gal(b1-4)GlcNAc
# Method in brief: as §1
# [13] = target: GlcNAc(a1-4)Gal(b1-4)GlcNAc(b1-3)Gal(b1-4)Glc
# Method in brief: as §1
# [14] = target: GlcNAc(a1-4)Gal(b1-4)GlcNAc(b1-3)Gal(b1-4)GlcNAc
# Method in brief: as §1
# [15] = target: GlcNAc(a1-4)Gal(b1-4)GlcNAc(b1-3)Gal(b1-4)GlcNAc(b1-3)Gal(b1-4)GlcNAc
# Method in brief: as §1
# [16] = target: GlcNAc(a1-4)Gal(b1-4)GlcNAc(b1-3)Gal(b1-4)[Fuc(a1-3)]GlcNAc(b1-3)Gal(b1-4)[Fuc(a1-3)]GlcNAc
# Method in brief: as §1
# [17] = target: GlcNAc(a1-6)Gal(b1-4)GlcNAc
# Method in brief: as §1
# [18] = target: GlcNAc(b1-2)Gal(b1-3)GalNAc
# Method in brief: as §1
# [19] = target: GlcNAc(b1-2)Man(a1-3)[GlcNAc(b1-2)Man(a1-6)]Man(b1-4)GlcNAc(b1-4)GlcNAc
# Method in brief: as §1
# [20] = target: GlcNAc(b1-2)Man(a1-3)[GlcNAc(b1-2)Man(a1-6)]Man(b1-4)GlcNAc(b1-4)[Fuc(a1-6)]GlcNAc
# Method in brief: as §1
# [21] = target: GlcNAc(b1-2)Man(a1-3)[GlcNAc(b1-4)][GlcNAc(b1-2)Man(a1-6)]Man(b1-4)GlcNAc(b1-4)GlcNAc
# Method in brief: as §1
# [22] = target: GlcNAc(b1-2)Man(a1-3)[GlcNAc(b1-4)][GlcNAc(b1-2)Man(a1-6)]Man(b1-4)GlcNAc(b1-4)[Fuc(a1-6)]GlcNAc
# Method in brief: as §1
# [23] = target: GlcNAc(b1-2)[GlcNAc(b1-4)]Man(a1-3)[GlcNAc(b1-2)Man(a1-6)]Man(b1-4)GlcNAc(b1-4)GlcNAc
# Method in brief: as §1
binder,measurement,setting,value
B1,glycan array binding signal (z-score),GalNAc(b1-4)GlcNAc,2.31
same,glycan array binding signal (z-score),[1],-0.825
same,glycan array binding signal (z-score),[2],7.58
same,glycan array binding signal (z-score),[3],-0.789
same,glycan array binding signal (z-score),GalNAc(b1-4)GlcNAc6S,-0.676
same,glycan array binding signal (z-score),GalNAc(b1-6)GalNAc,0.561
same,glycan array binding signal (z-score),GalNAc3S(b1-4)GlcNAc,-0.109
same,glycan array binding signal (z-score),GalNAc3S(b1-4)GlcNAc3S,-0.031
same,glycan array binding signal (z-score),[4],-0.741
same,glycan array binding signal (z-score),GalNAc4S6S(b1-4)GlcNAc,-0.249
same,glycan array binding signal (z-score),GalNAc6S(b1-4)GlcNAc,-0.268
same,glycan array binding signal (z-score),Glc(a1-4)Glc,-0.508
same,glycan array binding signal (z-score),[5],-0.725
same,glycan array binding signal (z-score),Glc(a1-6)Glc(a1-6)Glc,-0.169
same,glycan array binding signal (z-score),[6],-0.562
same,glycan array binding signal (z-score),Glc(b1-4)Glc,0.66
same,glycan array binding signal (z-score),Glc(b1-6)Glc,0.801
same,glycan array binding signal (z-score),GlcA(b1-3)Gal,0.506
same,glycan array binding signal (z-score),GlcA(b1-3)GlcNAc,0.33
same,glycan array binding signal (z-score),GlcA(b1-6)Gal,0.052
same,glycan array binding signal (z-score),[7],-0.131
same,glycan array binding signal (z-score),[8],-0.507
same,glycan array binding signal (z-score),[9],-0.156
same,glycan array binding signal (z-score),[10],-0.389
same,glycan array binding signal (z-score),[11],-0.048
same,glycan array binding signal (z-score),[12],-0.15
same,glycan array binding signal (z-score),[13],-0.016
same,glycan array binding signal (z-score),[14],0.257
same,glycan array binding signal (z-score),[15],-0.203
same,glycan array binding signal (z-score),[16],1.48
same,glycan array binding signal (z-score),[17],-0.127
same,glycan array binding signal (z-score),[18],0.018
same,glycan array binding signal (z-score),[19],-0.226
same,glycan array binding signal (z-score),[20],0.386
same,glycan array binding signal (z-score),[21],-0.289
same,glycan array binding signal (z-score),[22],1.83
same,glycan array binding signal (z-score),[23],1.22

# Not a retest: entries from further up.
binder,measurement,setting,value
B1,glycan array binding signal (z-score),GalNAc(b1-4)GlcNAc6S,-0.676
same,glycan array binding signal (z-score),GalNAc(b1-6)GalNAc,0.561
